Results are given in words; binding and its absence hold for the method and conditions named. Binding seen in cells or lysates may run through a third protein. Some entries that bind do so weakly or less than the wild type. Sequences can lack the tags named with a protein.
Biological target: T1, Elp3-FLAG (Elongator subunit Elp3) (UniProt Q9H9T3)
T1 sequence: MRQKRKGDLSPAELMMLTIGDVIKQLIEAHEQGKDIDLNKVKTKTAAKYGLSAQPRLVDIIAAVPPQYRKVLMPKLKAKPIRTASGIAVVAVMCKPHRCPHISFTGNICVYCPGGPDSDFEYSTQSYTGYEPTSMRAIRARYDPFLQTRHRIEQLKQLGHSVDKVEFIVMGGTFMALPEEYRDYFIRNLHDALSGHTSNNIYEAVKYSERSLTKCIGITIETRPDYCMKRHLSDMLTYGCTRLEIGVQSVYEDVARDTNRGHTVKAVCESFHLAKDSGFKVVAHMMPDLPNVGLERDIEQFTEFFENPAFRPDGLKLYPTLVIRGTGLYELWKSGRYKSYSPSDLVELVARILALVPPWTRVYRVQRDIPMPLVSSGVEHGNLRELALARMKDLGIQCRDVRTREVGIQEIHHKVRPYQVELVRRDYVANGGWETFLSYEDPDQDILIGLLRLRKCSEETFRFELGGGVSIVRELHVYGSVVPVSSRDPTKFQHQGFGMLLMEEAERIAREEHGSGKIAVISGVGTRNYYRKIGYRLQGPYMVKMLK
Assay: co-IP; HEK293 cells; Pierce Crosslink immunoprecipitation kit; 4 ug of Myc, Flag or general mouse IgG antibody crosslinked with DSS to protein A/G; Western blot detection with Elp3 and Acly antibodies

Chains of the proteins cited; added tags and fusions are not shown.
UniProt P53396: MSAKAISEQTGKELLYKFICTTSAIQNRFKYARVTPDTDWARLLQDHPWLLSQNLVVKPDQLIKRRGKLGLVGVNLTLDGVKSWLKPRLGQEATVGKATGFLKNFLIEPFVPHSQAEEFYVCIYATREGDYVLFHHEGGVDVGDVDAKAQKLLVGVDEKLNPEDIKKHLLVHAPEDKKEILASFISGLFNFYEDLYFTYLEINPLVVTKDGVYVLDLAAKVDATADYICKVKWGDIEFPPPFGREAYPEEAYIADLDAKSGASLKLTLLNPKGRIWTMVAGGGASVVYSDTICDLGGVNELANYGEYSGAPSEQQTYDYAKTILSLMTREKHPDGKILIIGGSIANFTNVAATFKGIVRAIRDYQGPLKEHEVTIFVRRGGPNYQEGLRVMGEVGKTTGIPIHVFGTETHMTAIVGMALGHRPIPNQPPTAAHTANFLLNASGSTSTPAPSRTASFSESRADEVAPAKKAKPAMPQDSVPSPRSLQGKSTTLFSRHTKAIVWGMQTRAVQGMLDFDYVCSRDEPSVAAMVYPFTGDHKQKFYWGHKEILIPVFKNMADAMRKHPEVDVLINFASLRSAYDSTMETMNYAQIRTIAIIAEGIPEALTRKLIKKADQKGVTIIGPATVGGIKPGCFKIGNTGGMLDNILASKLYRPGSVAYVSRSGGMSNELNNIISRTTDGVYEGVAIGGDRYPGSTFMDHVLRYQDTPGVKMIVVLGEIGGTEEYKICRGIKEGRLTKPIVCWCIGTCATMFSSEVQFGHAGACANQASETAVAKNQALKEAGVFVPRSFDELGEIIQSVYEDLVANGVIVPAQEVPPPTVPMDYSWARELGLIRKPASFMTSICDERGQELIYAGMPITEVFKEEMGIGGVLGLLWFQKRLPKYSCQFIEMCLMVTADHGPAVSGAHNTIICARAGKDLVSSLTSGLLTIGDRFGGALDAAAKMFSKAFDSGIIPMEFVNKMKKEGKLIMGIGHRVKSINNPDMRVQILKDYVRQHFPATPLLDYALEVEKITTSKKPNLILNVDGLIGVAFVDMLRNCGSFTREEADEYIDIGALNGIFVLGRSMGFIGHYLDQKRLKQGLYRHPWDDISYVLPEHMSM

binding: binds
Substance: Myc-Acly (ATP-citrate lyase) (from UniProt P53396 1-1101)
